From patent US20120219952A1, “CARBAPENEMASE AND ANTIBACTERIAL TREATMENT” (priority 2009, published 2012)
For at least one compound, name, drawing or mass did not settle the structure.

Assays:
P. stutzeri 13 = assay: MICs by agar dilution technique; type: cell-based, Pseudomonas stutzeri; conditions: 37° C., 18 h
Protocol: MICs were determined by an agar dilution technique with Mueller-Hinton agar (Sanofi-Diagnostic Pasteur) with an inoculum of 10^4 CFU/ml, as described previously (Poirel, Le Thomas et al., 2000). All plates were incubated at 37° C. for 18 h at ambient atmosphere. MICs of β-lactams were determined alone or in combination with a fixed concentration of clavulanic acid (2 μg/ml), tazobactam (4 μg/ml), and sulbactam (4 μg/ml). MIC results were interpreted according to the guidelines of the National Committee for Clinical Laboratory Standards (NCCLS) (CLSI).

[1] = test system: P. stutzeri clinical isolate 13; assay: Routine antibiogram by disk diffusion assay; type: cell-based, Pseudomonas stutzeri; conditions: clinical isolate P. stutzeri 13 expressing DIM-1
Protocol: Bacterial strains. P. stutzeri clinical isolate 13 was identified with the API-20 NE system (BioMérieux, Marcy l'Etoile, France), and confirmed by rRNA sequencing. Escherichia coli TOP10 (In Vitrogen, Carlsbad, Calif.)was the host for cloning experiments (Poirel et al., 2001)
Susceptibility testing. Antibiotic-containing disks were used for routine antibiograms by the disk diffusion assay (Sanofi-Diagnostic Pasteur, Marnes-la-Coquette, France). The ESBL double-disk synergy test was performed with disks containing ceftazidime or cefepime and ticarcillin-clavulanic acid on Mueller-Hinton agar plates, and the results were interpreted as described previously (Poirel, Le Thomas et al., 2000). The carbapenemase detection was performed by using Etest carbapenem-containing strips (AB Biodisk, Solna, Sweden).

Compound | β-lactam susceptibility from MICs (P. stutzeri 13) | susceptibility of P. stutzeri 13 [1]
C[C@@H](O)[C@H]1C(=O)N2C(C(=O)O)=C(SCCN=CN)C[C@H]12 [imipenem] | reduced susceptibility | resistant
CO[C@H]1/C=C/O[C@@]2(C)Oc3c(C)c(O)c4c(O)c(c(/C=N/N5CCN(C)CC5)c(O)c4c3C2=O)NC(=O)/C(C)=C\C=C\[C@H](C)[C@H](O)[C@@H](C)[C@@H](O)[C@@H](C)[C@H](OC(C)=O)[C@@H]1C [rifampicin] | – | resistant
CN(C)[C@@H]1C(O)=C(C(N)=O)C(=O)[C@@]2(O)C(O)=C3C(=O)c4c(O)cccc4[C@@](C)(O)[C@H]3C[C@@H]12 [tetracycline] | – | resistant
